From patent US20050187150A1, “Structure-based design and synthesis of FGF inhibitors and FGF modulator compounds” (New York University, priority 2001, published 2005)
These are yes or no findings as the source states them, for the method shown. Some binding calls cover weakened binding; strength is not graded here.

Protein sequences, listed by entry. Tags and fused reporters are not part of them. Lines headed by an entry give the natural chain unless they say otherwise; changes in a name come on top.
UniProt P11362: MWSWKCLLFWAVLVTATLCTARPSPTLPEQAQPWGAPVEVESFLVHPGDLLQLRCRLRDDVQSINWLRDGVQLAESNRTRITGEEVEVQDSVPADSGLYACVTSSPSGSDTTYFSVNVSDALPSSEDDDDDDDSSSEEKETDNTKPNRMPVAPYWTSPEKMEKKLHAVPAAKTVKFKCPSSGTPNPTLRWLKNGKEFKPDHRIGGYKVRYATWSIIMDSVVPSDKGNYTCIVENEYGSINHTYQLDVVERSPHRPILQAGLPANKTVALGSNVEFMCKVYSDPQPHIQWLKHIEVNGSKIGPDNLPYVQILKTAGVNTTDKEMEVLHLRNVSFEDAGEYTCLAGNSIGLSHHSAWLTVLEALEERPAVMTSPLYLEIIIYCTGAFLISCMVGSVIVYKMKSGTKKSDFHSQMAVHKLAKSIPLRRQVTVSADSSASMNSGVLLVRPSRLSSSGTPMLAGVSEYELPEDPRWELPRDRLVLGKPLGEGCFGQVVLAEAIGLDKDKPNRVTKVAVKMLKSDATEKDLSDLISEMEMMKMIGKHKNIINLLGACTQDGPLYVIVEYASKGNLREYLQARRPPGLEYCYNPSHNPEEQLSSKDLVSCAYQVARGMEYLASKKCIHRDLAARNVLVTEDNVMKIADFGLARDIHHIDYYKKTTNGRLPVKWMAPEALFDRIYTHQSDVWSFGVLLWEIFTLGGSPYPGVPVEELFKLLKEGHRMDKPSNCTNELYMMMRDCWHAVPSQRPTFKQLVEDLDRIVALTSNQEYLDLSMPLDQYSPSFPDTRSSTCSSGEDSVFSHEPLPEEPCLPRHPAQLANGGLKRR
UniProt P09038: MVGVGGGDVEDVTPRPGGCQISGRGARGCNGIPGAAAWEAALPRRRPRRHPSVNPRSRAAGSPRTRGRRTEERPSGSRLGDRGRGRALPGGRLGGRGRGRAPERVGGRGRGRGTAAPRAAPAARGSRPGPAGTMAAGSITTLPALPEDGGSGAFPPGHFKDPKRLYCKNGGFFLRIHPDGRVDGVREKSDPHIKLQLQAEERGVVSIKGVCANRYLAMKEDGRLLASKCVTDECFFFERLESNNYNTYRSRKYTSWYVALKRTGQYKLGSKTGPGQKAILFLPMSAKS

Tests used:
[1] = biological target: soluble FGFR1 polypeptide D23 (extracellular ligand binding portion of FGFR1, Ig-like domains D2 and D3) (Homo sapiens (Human)) (UniProt P11362); experiment: complex formation in solution, complex purified by size exclusion chromatography
[2] = biological target: soluble FGFR1 polypeptide D23 (extracellular ligand binding portion of FGFR1, Ig-like domains D2 and D3) (Homo sapiens (Human)) (UniProt P11362); experiment: size exclusion chromatography of purified FGF2-FGFR1 complex, no suramin; a small peak of free FGF from dissociation on dilution
[3] = biological target: soluble FGFR1 polypeptide D23 (extracellular ligand binding portion of FGFR1, Ig-like domains D2 and D3) (Homo sapiens (Human)) (UniProt P11362); experiment: size exclusion chromatography (Superdex 200) of purified 1:1 FGF2:FGFR1 complex, no SOS; a small peak of free FGF from dissociation on dilution
[4] = biological target: soluble FGFR1 polypeptide D23 (extracellular ligand binding portion of FGFR1, Ig-like domains D2 and D3) (Homo sapiens (Human)) (UniProt P11362); experiment: X-ray crystal structure of FGF2-FGFR1-SOS complex, 2.6 A
[5] = biological target: soluble FGFR1 polypeptide D23 (extracellular ligand binding portion of FGFR1, Ig-like domains D2 and D3) (Homo sapiens (Human)) (UniProt P11362); experiment: size exclusion chromatography; dimerization of FGF2:FGFR1 complexes in the presence of sucrose octasulfate
[6] = biological target: soluble FGFR1 polypeptide D23 (extracellular ligand binding portion of FGFR1, Ig-like domains D2 and D3) (Homo sapiens (Human)) (UniProt P11362); experiment: X-ray crystal structure of 2:2:2 FGF2-FGFR1-SOS dimer, 2.6 A
[7] = biological target: soluble FGFR1 polypeptide D23 (extracellular ligand binding portion of FGFR1, Ig-like domains D2 and D3) (Homo sapiens (Human)) (UniProt P11362); experiment: size exclusion chromatography; dimerization of FGF2:FGFR1 complexes in the presence of suramin

Measured: binding

FGF2 ligand polypeptide (from UniProt P09038 143-288)
binds: [1] | [2] | [3] | [4]

soluble FGFR1 polypeptide D23 (extracellular ligand binding portion of FGFR1, Ig-like domains D2 and D3) (from UniProt P11362 142-365) (receptor)
binds: [5] | [6] | [7]
